Results deposited as PubChem BioAssay AID1508597 (Cure First, 2020).
This is an unselected part of the about 2,100 reagents, in one setting of the screen. 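Calls flag viability under 80% in either arm, not effects specific to rucaparib; the reference for percent is not stated.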 Entries without a mark were called inactive. Not given: the 100% reference.

Aim: 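Genes whose silencing sensitises or protects ovarian cancer cells against rucaparib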 (primary screen)
Cell system: human ovarian carcinoma lines grown from tumours: OCI-P5x (papillary serous) and OCI-C5x (clear cell)
Reagents: siRNA pool against human genes, 1.25 pmol siRNA per well
Time to read-out: 72 h or 96 h, depending on the cell culture
Challenge: rucaparib 20 µM (about IC30) or vehicle, present until read-out
Rucaparib or vehicle: Vehicle
Cell line: OCI-P5x (serous)
Measurement: 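ATP luminescence measured at 72 or 96 h according to the culture, then normalised and expressed as percent viability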
Scale: viability, normalised: higher = more viable cells remaining
Call rule: 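Active when normalised viability falls below 80 percent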
Calls: active = viability under 80%; inactive = viability 80% or more

For CRADD (CARD and death domain containing adaptor protein), technical replicate 1, the values are viability, normalised (%) = 77.7 (active).
For CRADD (CARD and death domain containing adaptor protein), technical replicate 2, the entry reads viability, normalised (%) = 76.3 (active).
For CRADD (CARD and death domain containing adaptor protein), technical replicate 3 the deposit lists viability, normalised (%) = 71.7 (active).
STK39 (serine/threonine kinase 39), technical replicate 1 scored viability, normalised (%) = 67.6 (active).
STK39 (serine/threonine kinase 39), technical replicate 2 gave viability, normalised (%) = 57.9 (active).
STK39 (serine/threonine kinase 39), technical replicate 3 scored viability, normalised (%) = 71.9 (active).
For PIP5K1C (phosphatidylinositol-4-phosphate 5-kinase type 1 gamma), technical replicate 1 the deposit lists viability, normalised (%) = 68.2 (active).
For PIP5K1C (phosphatidylinositol-4-phosphate 5-kinase type 1 gamma), technical replicate 2 the deposit lists viability, normalised (%) = 69.7 (active).
For PIP5K1C (phosphatidylinositol-4-phosphate 5-kinase type 1 gamma), technical replicate 3 the deposit lists viability, normalised (%) = 69.3 (active).
With FAM131C (family with sequence similarity 131 member C), technical replicate 1, the entry reads viability, normalised (%) = 79.4 (active).
For FAM131C (family with sequence similarity 131 member C), technical replicate 2 the deposit lists viability, normalised (%) = 91.7.
For FAM131C (family with sequence similarity 131 member C), technical replicate 3, the entry reads viability, normalised (%) = 73 (active).
For RBM10 (RNA binding motif protein 10), technical replicate 1 the deposit lists viability, normalised (%) = 53.1 (active).
For RBM10 (RNA binding motif protein 10), technical replicate 2, the entry reads viability, normalised (%) = 60.2 (active).
For RBM10 (RNA binding motif protein 10), technical replicate 3 the deposit lists viability, normalised (%) = 96.9.
KMT5C (lysine methyltransferase 5C), technical replicate 1 showed viability, normalised (%) = 76.4 (active).
KMT5C (lysine methyltransferase 5C), technical replicate 2 showed viability, normalised (%) = 57.2 (active).
For KMT5C (lysine methyltransferase 5C), technical replicate 3 the deposit lists viability, normalised (%) = 50.1 (active).
PCK1 (phosphoenolpyruvate carboxykinase 1), technical replicate 1 gave viability, normalised (%) = 60.3 (active).
With PCK1 (phosphoenolpyruvate carboxykinase 1), technical replicate 2, the values are viability, normalised (%) = 82.1.
For PCK1 (phosphoenolpyruvate carboxykinase 1), technical replicate 3 the deposit lists viability, normalised (%) = 78.5 (active).
For MAPKAPK5 (MAPK activated protein kinase 5), technical replicate 1 the deposit lists viability, normalised (%) = 70.3 (active).
MAPKAPK5 (MAPK activated protein kinase 5), technical replicate 2 showed viability, normalised (%) = 90.6.
For MAPKAPK5 (MAPK activated protein kinase 5), technical replicate 3, the entry reads viability, normalised (%) = 88.7.
With STYK1 (STY kinase 1), technical replicate 1, the entry reads viability, normalised (%) = 85.4.
STYK1 (STY kinase 1), technical replicate 2 showed viability, normalised (%) = 79.6 (active).
For STYK1 (STY kinase 1), technical replicate 3 the deposit lists viability, normalised (%) = 70.7 (active).
PKLR (pyruvate kinase L/R), technical replicate 1 showed viability, normalised (%) = 92.8.
For PKLR (pyruvate kinase L/R), technical replicate 2, the values are viability, normalised (%) = 94.9.
PKLR (pyruvate kinase L/R), technical replicate 3 gave viability, normalised (%) = 106.
PRKAA1 (protein kinase AMP-activated catalytic subunit alpha 1), technical replicate 1 scored viability, normalised (%) = 98.1.
With PRKAA1 (protein kinase AMP-activated catalytic subunit alpha 1), technical replicate 2 the deposit lists viability, normalised (%) = 93.9.
PRKAA1 (protein kinase AMP-activated catalytic subunit alpha 1), technical replicate 3 scored viability, normalised (%) = 69.4 (active).
WWTR1 (WW domain containing transcription regulator 1), technical replicate 1 scored viability, normalised (%) = 50.6 (active).
With WWTR1 (WW domain containing transcription regulator 1), technical replicate 2 the deposit lists viability, normalised (%) = 82.8.
WWTR1 (WW domain containing transcription regulator 1), technical replicate 3 showed viability, normalised (%) = 78.1 (active).
For IGF1R (insulin like growth factor 1 receptor), technical replicate 1 the deposit lists viability, normalised (%) = 60.8 (active).
IGF1R (insulin like growth factor 1 receptor), technical replicate 2 scored viability, normalised (%) = 71.2 (active).
With IGF1R (insulin like growth factor 1 receptor), technical replicate 3, the values are viability, normalised (%) = 69.7 (active).
CREBBP (CREB binding lysine acetyltransferase), technical replicate 1 scored viability, normalised (%) = 59.3 (active).
CREBBP (CREB binding lysine acetyltransferase), technical replicate 2 scored viability, normalised (%) = 65 (active).
For CREBBP (CREB binding lysine acetyltransferase), technical replicate 3, the values are viability, normalised (%) = 64.2 (active).

7 entries from above in another layout.
| Gene | technical replicate | viability, normalised (%) |
| --- | --- | --- |
| PRKAA1 (protein kinase AMP-activated catalytic subunit alpha 1) | 2 | 93.9 |
| PRKAA1 (protein kinase AMP-activated catalytic subunit alpha 1) | 3 | 69.4 (active) |
| WWTR1 (WW domain containing transcription regulator 1) | 1 | 50.6 (active) |
| WWTR1 (WW domain containing transcription regulator 1) | 2 | 82.8 |
| WWTR1 (WW domain containing transcription regulator 1) | 3 | 78.1 (active) |
| IGF1R (insulin like growth factor 1 receptor) | 1 | 60.8 (active) |
| IGF1R (insulin like growth factor 1 receptor) | 2 | 71.2 (active) |
